Measured values taken from PubChem BioAssay AID504834 (National Center for Advancing Translational Sciences (NCATS), 2011).
Out of some 320,000 compounds screened, about 22,000 (6.9%) were called active. The inconclusive results got no clear call from the source; some entries with a clear call stand among them for comparison. The call rests on the fitted dose curve; in most records, active means well fitted inhibition curve with a large enough effect; inconclusive means small, poorly fitted or top-dose-only effect, or another doubt; inactive means no such curve, though single readings can be large or run the other way. Potencies beside an inconclusive call are fits to weak or partial responses and may not hold up.
Potency means the concentration at half of the fitted maximal effect.

Assay: Primary qHTS for delayed death inhibitors of the malarial parasite plastid, 96 hour incubation
Conditions: P. falciparum luciferase reporter growth; series mostly up to 28.7 µM
Procedure, shortened: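 Two-generation exposure (96 h) targets delayed-death phenotype. Reporter parasites carrying integrated firefly luciferase, in red cells at 2% hematocrit and 0.05% parasitemia final, kept at 37 C, 5% CO2; luminescence loss indicates inhibition.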
For `C=COCCn1c(C)c(C(=O)OCC)c2cc(O)ccc21`, the Potency was inconclusive: 2.08 µM [inhibitor, full curve].
In the case of `CCS(=O)(=O)c1nc(S(=O)(=O)c2ccc(Cl)cc2)c(NCCN2CCOCC2)s1`, the Potency is reported as “inactive”.
With `Cc1cc(C(=O)Nc2c(C)n(C)n(-c3ccccc3)c2=O)c(C)o1` the Potency was “inactive”.
With `Cc1ccc(C(=O)c2c(NC(=O)CSc3nnc(N)s3)sc3c2CCCC3)cc1` the Potency was active: 5.22 µM.
With `C=CCc1c(OC)ccc2c1c(S(=O)(=O)c1ccc(C)cc1)cn2COC` the Potency was inconclusive: 11.7 µM [inhibitor, partial curve].
With `Brc1ccc(-c2csc(/N=C/N3CCCC3)n2)cc1` the Potency was “inactive”.
For `NC(=O)c1ccc(C(F)(F)F)n(Cc2ccccc2Cl)c1=O`, the Potency was inconclusive: 2.33 µM [inhibitor, partial curve, poor fit].
With `COc1ccc(NC(=O)C2CC(=O)N(C)C(=Nc3ccc4c(c3)OCO4)S2)cc1` (configuration not stated) the Potency was inconclusive: 13.1 µM [inhibitor, single point].
For `CCOc1ccccc1N1CCN(C(=O)c2cc(S(=O)(=O)N3CCCCC3)ccc2C)CC1`, the Potency was inconclusive: 18.5 µM [inhibitor, single point].
With `COc1ccccc1N1CCN(C(=O)c2cc3cc(C)ccc3[nH]2)CC1` the Potency was inconclusive: 11.7 µM [inhibitor, single point].
For `O=[N+]([O-])c1ccc(C2(O)CN(c3ccccc3)C3=[N+]2CCS3)cc1` (configuration not stated), the Potency was “inactive”.
With `O=C(Cn1nnc(-c2ccccc2NC(=O)c2ccccc2)n1)Nc1ccc2c(c1)OCCO2` the Potency was inconclusive: 1.04 µM [inhibitor, full curve].
With `c1nc(N2CCC3(CC2)OCCO3)c2[nH]cnc2n1` the Potency was inconclusive: 14.7 µM [inhibitor, single point].
For `CCOc1ccc(Nc2cc(C)nc(-n3nc(C)cc3C)n2)cc1`, the Potency was inconclusive: 2.33 µM [inhibitor, partial curve, poor fit].
In the case of `O=C(CCN1C(=O)/C(=C/c2ccccc2)SC1=S)NCCc1ccc(O)cc1`, the Potency is reported as active: 11.7 µM.
For `O=C(CNC(=O)Cc1ccccc1)NCC(=O)OCC(=O)c1ccc(Cl)cc1`, the Potency was inconclusive: 10.4 µM [inhibitor, single point].
With `CCOC(=O)Cn1cncc1-c1ccc([N+](=O)[O-])cc1` the Potency was “inactive”.
In the case of `CC(C)(CN=C1NS(=O)(=O)c2ccccc21)CNC(=O)c1ccccc1`, the Potency is reported as inconclusive: 1.65 µM [inhibitor, partial curve].
For `Cn1c(=O)c2c(ncn2CC(=O)N2CCN(c3ccc([N+](=O)[O-])cc3)CC2)n(C)c1=O`, the Potency was inconclusive: 18.5 µM [inhibitor, single point].
In the case of `Cc1ccc2c(c1)[C@H]1[C@H](CO2)[C@H](c2ccccc2)[C@]2(C)C(=O)Nc3cc(Cl)ccc3C(=O)N12`, the Potency is reported as active: 9.28 µM.
With `CCOC(=O)c1ccc(NC(=S)N2CCCC(C(=O)N3CCCC3)C2)cc1` (configuration not stated) the Potency was inconclusive: 18.5 µM [inhibitor, single point].
For `O=C(O)CCSc1nnc(CNc2ccc(Cl)cc2)n1Cc1ccccc1`, the Potency was inconclusive: 10.4 µM [inhibitor, partial curve, poor fit].
For `Cc1cnc(CN(C)Cc2nc(Cc3cccc(C(F)(F)F)c3)no2)[nH]1`, the Potency was “inactive”.
With `CN(CC(=O)Nc1ccc(F)cc1)C(=O)CN1C(=O)c2ccccc2C1=O` the Potency was inconclusive: 16.5 µM [inhibitor, single point].
With `N#C/C(=C/c1ccco1)C(N)=S` the Potency was inconclusive: 0.738 µM [inhibitor, full curve, poor fit].
For `O=C(O)CN1CCN(Cc2ccccc2F)C1=O`, the Potency was “inactive”.
With `COc1ccc(CNC(=O)c2ccc3c(c2)NC(=O)C(C)S3)cc1` (configuration not stated) the Potency was “inactive”.
In the case of `CS(=O)(=O)c1ccc(NCC2CCCO2)c([N+](=O)[O-])c1` (configuration not stated), the Potency is reported as inconclusive: 0.828 µM [inhibitor, partial curve, poor fit].
With `COc1cccc(NC(=S)N2C3CCCC2CC(NC(=O)C2CC2)C3)c1` (configuration not stated) the Potency was “inactive”.
For `CN(/C(=N/S(=O)(=O)c1cccs1)c1ccccc1)c1ccccc1`, the Potency was “inactive”.
In the case of `Cc1nn(-c2ccccc2)c(C)c1C(=O)OCC(=O)NC(=O)NC1CCCC1`, the Potency is reported as “inactive”.
With `CC1CCN(S(=O)(=O)c2ccc(NC(=O)Cc3ccccc3)cc2)CC1` the Potency was inconclusive: 18.5 µM [inhibitor, single point].
With `Cc1cc(NC(=O)c2nn(C)c(C)c2[N+](=O)[O-])no1` the Potency was “inactive”.
With `O=C(Nc1cccc(Br)c1)c1ccc(CN2CCc3ccccc3C2)cc1` the Potency was active: 9.28 µM.
With `[O-][n+]1onc2c3ccnnc3ccc21` the Potency was inconclusive: 4.15 µM [inhibitor, single point].
For `NC(=O)C1(N2CCCCC2)CCN(C(=O)c2cccn3c(=O)c4cc(Cl)ccc4nc23)CC1`, the Potency was inconclusive: 18.5 µM [inhibitor, single point].
For `COc1cccc(/C=N/NC(=O)C(=O)Nc2ccccc2OC(F)(F)C(F)F)c1O`, the Potency was “inactive”.
In the case of `CCOc1ccc(CCNC(=O)c2cc3sccc3n2C)cc1OCC`, the Potency is reported as inconclusive: 18.5 µM [inhibitor, single point].
For `Cc1ccc(S(=O)(=O)/N=C(/c2ccc(F)cc2)N(C)C)cc1`, the Potency was “inactive”.
With `C=C(C)C(=O)N1CC2(CC(c3cccc(NC(=O)CC)c3)=NO2)C[C@H]1C(N)=O` (some centres not stated) the Potency was “inactive”.
For `COc1ccc(C(=O)/C=C/Nc2ccc(NC(C)=O)cc2)cc1OC`, the Potency was “inactive”.
For `CS(=O)(=O)c1nc(-c2ccc(Br)cc2)cc(-c2ccccc2)c1C#N`, the Potency was inconclusive: 18.5 µM [inhibitor, single point].
For `Cc1cc(C(=O)NC(C)c2ccncc2)no1` (configuration not stated), the Potency was inconclusive: 13.1 µM [inhibitor, single point].
In the case of `CCOc1ccc(S(=O)(=O)N2CCOCC2)cc1NC(=O)CSC(=S)N1CCCC1`, the Potency is reported as inconclusive: 18.5 µM [inhibitor, single point].
With `Cc1ccsc1CN1CC(=O)N(c2c(C)cccc2C)C1=S` the Potency was “inactive”.
With `CCOC(=O)c1cc(CC)sc1NC(=O)C1CC(=O)NN1Cc1ccccc1` (configuration not stated) the Potency was “inactive”.
With `Cc1ccc(NC(=O)CS(=O)CC(=O)Nc2ccc(N3CCOCC3)cc2)cc1Cl` (configuration not stated) the Potency was inconclusive: 1.17 µM [inhibitor, full curve, poor fit].
